Some of the results follow. The main result of the screen is listed elsewhere. These columns were measured beside it and carry no call. Most of these compounds were active or inconclusive in the main read-out, so they are no random draw. Potencies come from curve fits of mixed quality, noted in brackets.
Assay: qHTS Assay to Find Inhibitors of Chronic Active B-Cell Receptor Signaling
Settings: ABC-DLBCL IkBa-CBG/CBR reporter, luminescence ratio (green luciferase fused to IkBa over red control in TMD8 lymphoma cells), 4 h
How it was run: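 Compounds up to 46 uM were incubated four hours with TMD8 cells whose green CBG68 luciferase is fused to IkappaBalpha; red CBR luminescence normalised the signal, and concentration-effect curves were fitted to fusion, red and ratio data.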

[1] = measured here: CBR red luminescence, cell number
[2] = measured here: IkBa-CBG green luminescence

Structure (SMILES) | AC50 [1] | AC50 [2]
CCCSC1=C(C#N)C(c2cccs2)C(C(=O)Nc2ccccc2)=C(C)N1 (stereo unspecified) | 10.3 µM [falling, partial curve] | 6.51 µM [rising, full curve, poor fit]
N#CC1=C(SCc2ccccc2)NC(=O)CC1c1ccco1 (stereo unspecified) | 25.1 µM [falling, single point] | –
Cc1cc(C(=O)COC(=O)c2ccc(F)cc2F)c(C)n1C1CC1 | 3.26 µM [rising, single point] | –
CCC(CC)c1nnc(NC(=O)CCS(=O)(=O)Cc2ccccc2)s1 | 5.01 µM [falling, full curve] | –
COC(=O)N(C)c1nc2ccccc2s1 | 0.794 µM [rising, full curve, poor fit] | –
COC(=O)c1c(NC(=O)/C=C/c2ccc3c(c2)OCO3)sc(C)c1C | 0.731 µM [falling, partial curve, poor fit] | –
CSC1=NC(C)(C)C=C(/C=C/c2c(Cl)cccc2Cl)N1 | 10 µM [falling, partial curve] | –
Cc1ccc(CN2C(=O)CCC2C(=O)NCCN(CC(C)C)CC(C)C)cc1 (stereo unspecified) | 18.4 µM [falling, single point] | –
CCc1sc(C(=O)NCCc2ccc(S(N)(=O)=O)cc2)cc1Br | 5.01 µM [rising, full curve, poor fit] | –
Cc1cccc(N2CCN(C(=O)COCc3cc(-c4ccc5c(c4)OCO5)on3)CC2)c1C | 35.5 µM [falling, single point] | –
O=C(N/N=C1/CCS(=O)(=O)c2ccc(F)cc21)c1cccnc1 | 0.1 µM [falling, full curve, poor fit] | –
COC(=O)CCC(=O)OC1(C)C(=O)C=C2C=C(C3CC3)N(C3CCCCC3)C=C2C1=O (stereo unspecified) | 20 µM [rising, partial curve, poor fit] | –
CCC1(C)Cc2c(C#N)c(N)sc(=S)c2CO1 (stereo unspecified) | 20 µM [rising, single point] | –
O=c1ccn(Cc2ccccc2)cc1 | 35.5 µM [rising, single point] | –
Cn1ccnc1SCC(=O)Nc1ccc2ccccc2c1 | 8.2 µM [falling, partial curve, poor fit] | –
C=CCOc1ccc(/C=C/C(=O)OCC(=O)NCc2cccs2)cc1 | 14.6 µM [rising, partial curve] | –
COc1cccc(/C=C/C(=O)c2ccc3c(c2)OCO3)c1OC | 18.4 µM [falling, single point] | –
O=C(NCC(c1cccs1)N1CCOCC1)c1cnc(Cl)c(Cl)c1 (stereo unspecified) | 16.4 µM [falling, single point] | –
O=C(CSc1nnc2ccccn12)Nc1ncc(Cl)cc1Cl | 0.164 µM [rising, full curve, poor fit] | –
CC1=CCC(C(=O)O)C(C(=O)NC2CCCCC2)C1 (stereo unspecified) | 14.1 µM [falling, partial curve, poor fit] | –
O=C(NCc1ccccc1)Nc1cc(Cl)ccc1Cl | 0.316 µM [rising, full curve, poor fit] | –
COc1cc(/C=C/c2nc3ccccc3s2)cc(OC)c1O | 15.8 µM [falling, single point] | –

Structure (SMILES) | AC50 [1] | AC50 [2]
CC(OC(=O)CCOc1ccccc1)C(=O)Nc1ccc(Cl)cn1 (stereo unspecified) | 14.1 µM [falling, single point] | –
CCOC(=O)CC1COCCN1Cc1cn[nH]c1-c1cc(OC)c(OC)c(OC)c1 (stereo unspecified) | 7.08 µM [rising, partial curve, poor fit] | –
N#Cc1ccsc1NC(=O)COC(=O)C1=NNC(=O)CC1 | 18.4 µM [rising, single point] | –
COc1ccc(Cn2c(-c3ccc(Br)cc3)c[n+]3ccccc23)cc1 | 2.59 µM [rising, partial curve] | –
O=C(NC(=S)NCCc1ccccc1)c1ccccc1 | 35.5 µM [falling, single point] | –
CC(C)CCCCCCNC(=S)Nc1ccc(S(=O)(=O)N2CCOCC2)cc1 | 18.4 µM [falling, partial curve, poor fit] | –
CCn1cc(C(=O)NCCc2ccc(OC)c(OC)c2)c(=O)c2cc(S(=O)(=O)N3CCOCC3)ccc21 | 17.8 µM [rising, partial curve, poor fit] | –
N#C/C(=C\C=C\c1ccccc1)C(=O)N1CCCC1 | 10 µM [falling, partial curve] | –
Cc1ccc(-c2cn3cc(C)ccc3n2)cc1 | 7.94 µM [falling, partial curve, poor fit] | –
O=S(=O)(c1cccc(NC(=S)N2CCN(c3cccc(Cl)c3)CC2)c1)C(F)F | 18.4 µM [falling, single point] | –
Cc1cccc(-n2nnc(-c3nc(-c4ccccc4)no3)c2N)c1C | 12.6 µM [falling, single point] | –
O=C(CSc1ccccc1)Nc1cccnc1 | 32.6 µM [falling, single point] | –
COC(=O)Cc1csc(N)n1 | 0.731 µM [rising, full curve, poor fit] | –
CN(C)c1ccc(/C=C/c2ccncc2)cc1 | 0.651 µM [rising, full curve, poor fit] | –
CCCCn1c(N)c(N(CC(C)C)C(=O)c2cccc(S(=O)(=O)N3CC(C)OC(C)C3)c2)c(=O)[nH]c1=O (stereo unspecified) | 7.31 µM [rising, partial curve, poor fit] | –
COc1ccc(C2/C=C\CN(S(=O)(=O)c3ccc4ccccc4c3)CC(=O)N2Cc2ccc(F)cc2)cc1 (stereo unspecified) | 11.2 µM [rising, partial curve, poor fit] | –
O=C(C(c1ccccc1)c1ccccc1)N1CC[C@@]2(O)CCCC[C@H]2C1 | 6.31 µM [rising, single point] | –
O=C(Nc1cccc(Cl)c1)Nc1cc(S(=O)(=O)N2CCCCC2)ccc1Cl | 32.6 µM [falling, single point] | –
O=C(O)c1cccc(CN2C(=O)S/C(=C/c3cccc([N+](=O)[O-])c3)C2=O)c1 | 5.62 µM [falling, full curve] | –
CC(C)NCC1CCc2cc(CO)c([N+](=O)[O-])cc2N1 (stereo unspecified) | 0.112 µM [falling, full curve, poor fit] | –
CCN(Cc1ccncc1)Cc1cn(C)nc1-c1ccc(Oc2ccccc2)cc1 | 0.794 µM [rising, full curve, poor fit] | –
COc1cc(C(=O)Nc2scc(-c3ccc(C)cc3)c2C(=O)O)cc(OC)c1OC | 2.82 µM [falling, full curve] | 3.16 µM [rising, full curve, poor fit]

Structure (SMILES) | AC50 [1] | AC50 [2]
CC(OC(=O)c1cc(=O)[nH]c2ccccc12)C(=O)c1ccccc1 (stereo unspecified) | 20 µM [rising, single point] | –
COC(=O)C1=C(C)N(CCc2ccc(OC)cc2)C(=O)C1 | 8.91 µM [falling, partial curve] | –
COc1cc2cc(CN(C(=O)NC3CCCCC3)C3CCCC3)c(=O)[nH]c2cc1OC | 0.562 µM [rising, partial curve, poor fit] | –
COc1cccc(-c2csc(N3CCN(C(=S)Nc4cccc(Cl)c4)CC3)n2)c1 | 6.31 µM [rising, single point] | –
O=C(COc1ccc(F)cc1)N1CCc2ccccc2C1 | 8.91 µM [falling, partial curve, poor fit] | –
C(=C\c1ccccc1)/CSc1nnc(-c2cccnc2)o1 | 5.62 µM [falling, single point] | –
C[C@@H](CN1C(=O)C(=O)NC[C@@H]1Cc1ccc(O)cc1)NC(=O)Cc1ccccc1 | 20 µM [falling, partial curve, poor fit] | –
Cc1occc1-c1nnc(SC(C)C(=O)Nc2ccccc2F)o1 (stereo unspecified) | 10.3 µM [falling, partial curve, poor fit] | –
CN(C)CCCN(C(=O)c1cc2ccccc2oc1=O)c1nc2ccc(F)cc2s1 | 16.4 µM [falling, single point] | –
CC(/C=N/n1c(-c2n[nH]c3c2CCC3)n[nH]c1=S)=C\c1ccco1 | 0.1 µM [falling, full curve, poor fit] | –
Clc1cc(Cl)c2nc(N3CCOCC3)sc2c1 | 23.1 µM [rising, partial curve] | –
Cc1ccc2sc(-c3ccc(NC(=O)/C=C\C(=O)O)cc3)nc2c1 | 35.5 µM [falling, single point] | –
N/C(=N\OC(=O)c1cccc2ccccc12)c1cccnc1 | 0.2 µM [rising, full curve, poor fit] | –
CCCCNC(=O)c1cc(-c2ccc(OC)c(OC)c2)on1 | 1.12 µM [rising, full curve, poor fit] | –
COC(=O)c1cc(NC(=S)NC(=O)c2ccccc2)ccc1N1CCOCC1 | 3.16 µM [falling, full curve] | –
Cc1ccc2c(c1)[C@H]1[C@H](CO2)[C@H](c2ccccc2)[C@]2(C)C(=O)Nc3ccc(Br)cc3C(=O)N12 | 3.66 µM [falling, full curve] | –
COc1cccc(NCc2cc(=O)oc3cc(C)c(C(C)C)cc23)c1 | – | 31.6 µM [falling, single point]
Cc1cc(C)nc(/N=C2\NC(=O)CC3C(=O)NCCN23)n1 (stereo unspecified) | 3.66 µM [rising, full curve, poor fit] | –
CC1CCN(c2nc(-c3cccnc3)nc3scc(-c4ccccc4)c23)CC1 | 25.9 µM [rising, single point] | –
COc1ccc(CCNc2nc(-c3ccco3)cc(C(F)(F)F)n2)cc1OC | 11.2 µM [falling, partial curve, poor fit] | –

Copied from the results shown, two compounds:
Structure (SMILES) | AC50 [1] | AC50 [2]
Cc1occc1-c1nnc(SC(C)C(=O)Nc2ccccc2F)o1 (stereo unspecified) | 10.3 µM [falling, partial curve, poor fit] | –
CN(C)CCCN(C(=O)c1cc2ccccc2oc1=O)c1nc2ccc(F)cc2s1 | 16.4 µM [falling, single point] | –

Reference: PubChem BioAssay AID493014 (National Center for Advancing Translational Sciences (NCATS), 2011)
